These are yes or no findings as the source states them, for the method shown. Binding seen in cells or lysates may run through a third protein. These calls come from enrichment with a bait or labelling near it, and not all partners need be listed. Sequences can lack the tags named with a protein.

Protein sequences, listed by entry. Tags and fused reporters are not part of them.
UniProt O60238: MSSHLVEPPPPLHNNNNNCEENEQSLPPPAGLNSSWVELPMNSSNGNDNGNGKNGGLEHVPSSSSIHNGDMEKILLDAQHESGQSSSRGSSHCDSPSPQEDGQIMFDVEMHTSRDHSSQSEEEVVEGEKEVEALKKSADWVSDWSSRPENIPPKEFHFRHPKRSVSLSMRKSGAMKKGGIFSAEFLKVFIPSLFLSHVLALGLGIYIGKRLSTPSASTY

Experiment [1] addresses MAC(BirA-HA-Strep-tagII)-NIX (UniProt O60238). Nature of the experiment: proximity labelling; BioID: doxycycline-inducible BirA bait (48 h) in cells transduced with FBXL4-HA; 50 uM biotin 24 h; MLN4924 24 h where indicated; RIPA lysis; streptavidin magnetic beads; immunoblot.
Experiment [2] deals with MAC(BirA-HA-Strep-tagII)-BNIP3. Described as above.

B1: FBXL4 tagged with HA at its C-terminus, wild type (protein, UniProt Q9UKA2 1-621)
chain: MSPVFPMLTVLTMFYYICLRRRARTATRGEMMNTHRAIESNSQTSPLNAEVVQYAKEVVDFSSHYGSENSMSYTMWNLAGVPNVFPSSGDFTQTAVFRTYGTWWDQCPSASLPFKRTPPNFQSQDYVELTFEQQVYPTAVHVLETYHPGAVIRILACSANPYSPNPPAEVRWEILWSERPTKVNASQARQFKPCIKQINFPTNLIRLEVNSSLLEYYTELDAVVLHGVKDKPVLSLKTSLIDMNDIEDDAYAEKDGCGMDSLNKKFSSAVLGEGPNNGYFDKLPYELIQLILNHLTLPDLCRLAQTCKLLSQHCCDPLQYIHLNLQPYWAKLDDTSLEFLQSRCTLVQWLNLSWTGNRGFISVAGFSRFLKVCGSELVRLELSCSHFLNETCLEVISEMCPNLQALNLSSCDKLPPQAFNHIAKLCSLKRLVLYRTKVEQTALLSILNFCSELQHLSLGSCVMIEDYDVIASMIGAKCKKLRTLDLWRCKNITENGIAELASGCPLLEELDLGWCPTLQSSTGCFTRLAHQLPNLQKLFLTANRSVCDTDIDELACNCTRLQQLDILGTRMVSPASLRKLLESCKDLSLLDVSFCSQIDNRAVLELNASFPKVFIKKSFTQ
With B1, the binding result in experiment [1] and in experiment [2] was “binds” throughout.

These data come from PMC10308361.
